Among the data in article PMC7819943, “Rice protein-binding microarrays: a tool to detect cis-acting elements near promoter regions in rice” are binding signal values, retold here.

This is one part of the list.

The test concerns the target T1, OsSMF1 (Oryza sativa, UniProt Q6ZLB0 1-436).
T1 sequence: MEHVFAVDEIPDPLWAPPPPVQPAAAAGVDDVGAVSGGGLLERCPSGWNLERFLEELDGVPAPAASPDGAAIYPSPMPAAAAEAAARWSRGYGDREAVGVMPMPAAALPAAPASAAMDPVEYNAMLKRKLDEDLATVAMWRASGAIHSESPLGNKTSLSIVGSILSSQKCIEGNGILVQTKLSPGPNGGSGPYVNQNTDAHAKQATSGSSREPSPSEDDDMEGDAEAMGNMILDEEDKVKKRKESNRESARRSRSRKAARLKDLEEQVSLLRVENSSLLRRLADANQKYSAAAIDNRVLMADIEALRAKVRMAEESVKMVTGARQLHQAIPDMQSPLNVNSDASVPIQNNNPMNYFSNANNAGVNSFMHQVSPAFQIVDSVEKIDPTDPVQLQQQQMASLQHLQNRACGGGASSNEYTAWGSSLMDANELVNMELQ
The experiment in a line: protein-binding microarray (RPBM); PBS, 2% BSA, 51.3 ng/ul salmon testes DNA, 50 uM zinc acetate, 200 nM TF, 25 C, 1 h; high values mean tight binding. As to conditions: protein: recombinant; tags: N-terminal polyhistidine and DsRed monomer fusion (pET32a); chain copies: 2; label: CyDye5-dUTP incorporated in the synthesized complementary strand; 3' TTTTT single-stranded linker to array surface; dsDNA, one strand shown. The method in brief:
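A custom Agilent array was converted to double-stranded form by primer extension with Cy5-dUTP and blocked with 2% BSA. Protein at 200 nM in PBS with 2% BSA, salmon testes DNA and 50 µM zinc acetate was applied for 1 h at 25 °C, followed by washing. The proteins were polyhistidine–DsRed N-terminal fusions of transcription factors, expressed in E. coli BL21-CodonPlus and Ni–NTA-purified. The binding signal is per-feature fluorescence intensity (arbitrary units) from an Axon 4000B scanner.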
On to “GTCTTCGTGTTCGTGACCTGTCCATGAGCAGAATTAGCTGCGGAGTCACCTAGTGCAG”, for which the binding signal is 5150 fluorescence intensity (a.u.).

Turning to “ATTCCAGCACTAATGTGTCATGGTTTACCTCAGCCACGCGCGGAGTCACCTAGTGCAG”, the binding signal was 5350 fluorescence intensity (a.u.).

In the case of “ACACAGCACATGTCACCGCCTCGTCAGACCGGGCCCACACCGGAGTCACCTAGTGCAG”, the binding signal is 15600 fluorescence intensity (a.u.).

With “ATCGCTCGCCACGTGTCCACGCTCCACCCCAACCCCTCATCGGAGTCACCTAGTGCAG”, the binding signal is 24400 fluorescence intensity (a.u.).

As to “CTTCAGCGGGCCAAGATCTGGGAGCCGGCGTGGCCTAAGGCGGAGTCACCTAGTGCAG”, the binding signal was 3380 fluorescence intensity (a.u.).

As to “GCAGATCTTGACTATCTCCACGGGATATATACACGGCGGCCGGAGTCACCTAGTGCAG”, the binding signal was 22300 fluorescence intensity (a.u.).

Turning to “GACAATGACACGTTCTACAAGATATACATTTGAGCTTATTCGGAGTCACCTAGTGCAG”, the binding signal was 3330 fluorescence intensity (a.u.).

In the case of “TGAAACCTTAAAGGTGTTCTTACCGAGTGTCGGTTAGAAACGGAGTCACCTAGTGCAG”, the binding signal is 3210 fluorescence intensity (a.u.).

For “TTACTACCTATTCTAAAATATTAGAATATAAAATTGGATGCGGAGTCACCTAGTGCAG”, the binding signal is 32300 fluorescence intensity (a.u.).

For “CGGCGGCCTTGTCGCCGGTGACGGGAGGGAGAGGGGTCGTCGGAGTCACCTAGTGCAG”, the binding signal is 4630 fluorescence intensity (a.u.).

Consider “AAAAGTCCACGGTGGACCGGTTCCACCACCACCACCCTCCCGGAGTCACCTAGTGCAG”, for which the binding signal is 3970 fluorescence intensity (a.u.).

In the case of “TCCAGCTATCGTAGTAGAGATGACGACATGCCAAAGTGGTCGGAGTCACCTAGTGCAG”, the binding signal was 3150 fluorescence intensity (a.u.).

“CTTGCGTTGGTACAACAATCCGTCGAGAGCTCCGTGGCGTCGGAGTCACCTAGTGCAG”: the binding signal is 3340 fluorescence intensity (a.u.).

Turning to “TGTTCTCCTACAGTCTCATCACCGATTGCTACTCCTATTACGGAGTCACCTAGTGCAG”, the binding signal was 3250 fluorescence intensity (a.u.).

On to “CGAAGAGGAAGGGAAGGGCAGCGCCACGTCGACACCACGTCGGAGTCACCTAGTGCAG”, for which the binding signal was 24100 fluorescence intensity (a.u.).

As to “ACATGTGGGCTCACAGCCCAGTCATAGCCCCATAGGTTGTCGGAGTCACCTAGTGCAG”, the binding signal is 6170 fluorescence intensity (a.u.).

Turning to “CCGGGGCCCCTCGACGCGGCACGTGGCTCGCACATTCGCACGGAGTCACCTAGTGCAG”, the binding signal is 6690 fluorescence intensity (a.u.).

On to “ACGCAGACATTCACGTTTCCTCCATGTGTCATCAATGATGCGGAGTCACCTAGTGCAG”, for which the binding signal was 5410 fluorescence intensity (a.u.).

In the case of “AGATTTTGAGTCACATTTGACTCATGTCAGACAAGTCTTACGGAGTCACCTAGTGCAG”, the binding signal was 29300 fluorescence intensity (a.u.).

Turning to “GTTTTAATCTACGTGGCAGTTGAGTCAGCATGGGACTCACCGGAGTCACCTAGTGCAG”, the binding signal was 18900 fluorescence intensity (a.u.).

Regarding “CAAAGGGGCCCACCGAAGATGACCAAGTAGACAAGATTGGCGGAGTCACCTAGTGCAG”, the binding signal was 3760 fluorescence intensity (a.u.).

Turning to “TCCCATGTCTCCGCCGCCGCGTCACCGCCCAGCACGAACCCGGAGTCACCTAGTGCAG”, the binding signal was 9060 fluorescence intensity (a.u.).

Take “AGTTTTGATTGTTTTGAATACCTGGACTCTCTCACTATATCGGAGTCACCTAGTGCAG”: the binding signal was 3640 fluorescence intensity (a.u.).

On to “GGTGATGCGGTCGACAAGCTCCCCGAGCTCACGTGGCGGCCGGAGTCACCTAGTGCAG”, for which the binding signal is 7930 fluorescence intensity (a.u.).

On to “CTCTGAGTGGAAGGGCAGAGTCAGTGATGCTGCGTGGGAGCGGAGTCACCTAGTGCAG”, for which the binding signal is 4770 fluorescence intensity (a.u.).

With “CGTTGCAGAGCGACGTGGTCTTATCTGAGACGTCCGTACCCGGAGTCACCTAGTGCAG”, the binding signal is 3410 fluorescence intensity (a.u.).

Take “CACCGACAGGCATGGCCCACACGTCAGGCGTGGCCGCCCGCGGAGTCACCTAGTGCAG”: the binding signal was 11100 fluorescence intensity (a.u.).

For the sequence “GACTCATCTTTTGGCAGCGACTCGCGTGGATCCTGACAAACGGAGTCACCTAGTGCAG”, the binding signal was 3210 fluorescence intensity (a.u.).

For the sequence “GTTAGTCATATCCATGGGTGGTTTGCATGGGAGAAGTCAGCGGAGTCACCTAGTGCAG”, the binding signal was 4220 fluorescence intensity (a.u.).

Turning to “CCGTAATGCTGGAACTATGGCGAATGCATCTATCGTCATTCGGAGTCACCTAGTGCAG”, the binding signal is 3170 fluorescence intensity (a.u.).

On to “TTATGAACTTGCTCAGTTTGCTAAACGGACGGCACATTACCGGAGTCACCTAGTGCAG”, for which the binding signal is 32100 fluorescence intensity (a.u.).

Regarding “ATTAGTTGATTTGCAAATAATTTCCACCGTGGCGTGACAACGGAGTCACCTAGTGCAG”, the binding signal is 4300 fluorescence intensity (a.u.).

As for “CTCCTGGTACGCCTCGCTCAGCTCGTCCACCGTCGCCTCCCGGAGTCACCTAGTGCAG”, the binding signal is 3750 fluorescence intensity (a.u.).

Take “ATGGGTCGACCCACGTATCCACTCAGCGTTTACATTACCACGGAGTCACCTAGTGCAG”: the binding signal was 17700 fluorescence intensity (a.u.).

As to “CCAGACTGCCTAACTGTACAGTCACGGCGCCATCTCGGACCGGAGTCACCTAGTGCAG”, the binding signal is 4250 fluorescence intensity (a.u.).

In the case of “GCGCAAGCAAACCAACCTGACTCCGACCCGTACCCGTCCCCGGAGTCACCTAGTGCAG”, the binding signal is 4600 fluorescence intensity (a.u.).

In the case of “GCGAGCGGCCAACTGGGAAGGCGGTGGTGAGGACATCGTGCGGAGTCACCTAGTGCAG”, the binding signal was 5400 fluorescence intensity (a.u.).

Consider “AGCAATCGTGTGCGCGTAGCCACACGTATCAGCGCCCCACCGGAGTCACCTAGTGCAG”, for which the binding signal is 3220 fluorescence intensity (a.u.).

Regarding “ATTGGTCCACACGTCATACTCTTATTTTCTAGCCAAAGTTCGGAGTCACCTAGTGCAG”, the binding signal is 13500 fluorescence intensity (a.u.).

For the sequence “TCCTTCTTCCTTGGCCTCTTCCTAATGACAAGCCCTTGCGCGGAGTCACCTAGTGCAG”, the binding signal was 3610 fluorescence intensity (a.u.).

“AATTGTTATGACGTGTCCCATGCATTATCAAACTTTGTGTCGGAGTCACCTAGTGCAG”: the binding signal was 20800 fluorescence intensity (a.u.).

As to “GCGAAAACCCTGCATAAACATAGGAAAACACCAAGTGGGTCGGAGTCACCTAGTGCAG”, the binding signal is 3560 fluorescence intensity (a.u.).
